Laboratory results from patent US20220016277A1, “MACROCYCLIC COMPLEXES OF RADIONUCLIDES AND THEIR USE IN RADIOTHERAPY OF CANCER” (Cornell University, priority 2018, published 2022).

Assay: ^225Ac radiolabeling of macropa and DOTA
Format: physicochemical
Conditions: ligand 59 μM; ^225Ac 26 kBq; 0.15 M NH4OAc pH 5.5-6; 5 min at RT

Structure (SMILES): O=C(O)c1cccc(CN2CCOCCOCCN(Cc3cccc(C(=O)O)n3)CCOCCOCC2)n1 [macropa, N,N′-bis[(6-carboxy-2-pyridil)methyl]-4,13-diaza-18-crown-6]
- ^225Ac complexed (radio-TLC): all
